Data source: PubChem BioAssay AID504791 (Drosophila RNAi Screening Center, 2011)
In all, the deposit lists about 23,000 reagents; this is an unselected part of those that have a named target and a result. Of all reagents, 199 (0.86%) were called active. 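Plate-scaled ratios behind the calls are not deposited; printed light signals are raw; many rows marked increased or decreased are still called inactive.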 Unmarked entries are inactive. A plus sign joins genes that one reagent is predicted to hit.

Screen: 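Genes whose knock-down strengthens or weakens small-RNA reporter silencing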 (primary screen)
Cell system: Drosophila S2-derived reporter cells
Reagents: long dsRNA against Drosophila genes, about 150-250 ng dsRNA per well (siRNA assay); about 80-120 ng (miRNA assay)
Timing: about 5 days (siRNA assay); about 4 days (miRNA assay)
Treatment: copper sulfate induction of reporters: 25 µM (siRNA assay); 200 mM stated (miRNA assay), 1-2 days before reading
Detection: 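Per-well ratio of Renilla over firefly light, expressed relative to that plate's average ratio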
Scale: siRNA reporter hit score: higher = 3 marks a strong hit with raised ratio; -3 a strong hit with lowered ratio
Units: stable assay Renilla, run 1 in luminescence; stable assay firefly, run 1 in luminescence
Call rule: 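First-pass picks had plate-scaled ratios over 1.5 for the siRNA assay, over 1.6 for the miRNA assay, or under 0.6; two distinct dsRNAs had to score alike on retest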

ema (endosomal maturation defective) [DRSC14536]: stable assay Renilla, run 1 = 7043; stable assay firefly, run 1 = 4.56e5
RPA3 (Replication protein A3) [DRSC19658]: stable assay Renilla, run 1 = 6311; stable assay firefly, run 1 = 4.42e5
CG4161 [DRSC01930]: stable assay Renilla, run 1 = 7158; stable assay firefly, run 1 = 3.38e5
CG3515 [DRSC00609]: siRNA reporter hit score = -3; stable assay Renilla, run 1 = 8404; stable assay firefly, run 1 = 3.82e5
CG17784 [DRSC15268]: stable assay Renilla, run 1 = 6808; stable assay firefly, run 1 = 4.15e5
Ostgamma (Oligosaccharide transferase gamma subunit) [DRSC03074]: stable assay Renilla, run 1 = 1.13e5; stable assay firefly, run 1 = 4.23e5
CG6254 [DRSC16002]: stable assay Renilla, run 1 = 7027; stable assay firefly, run 1 = 3.84e5
Ibf2 (Insulator binding factor 2) [DRSC16551]: stable assay Renilla, run 1 = 6967; stable assay firefly, run 1 = 4.64e5
Hsdl2 (Hydroxysteroid dehydrogenase like 2) [DRSC15839]: stable assay Renilla, run 1 = 7610; stable assay firefly, run 1 = 3.60e5
Upf2 [DRSC18218]: stable assay Renilla, run 1 = 6066; stable assay firefly, run 1 = 3.70e5
CG13581 [DRSC04216]: stable assay Renilla, run 1 = 5891; stable assay firefly, run 1 = 3.32e5
MESK2 + CG10494 [DRSC04259]: stable assay Renilla, run 1 = 7942; stable assay firefly, run 1 = 3.92e5
CstF64 (Cleavage stimulation factor 64 kD subunit) [DRSC16616]: stable assay Renilla, run 1 = 9186; stable assay firefly, run 1 = 4.88e5
CG10469 [DRSC09729]: stable assay Renilla, run 1 = 5839; stable assay firefly, run 1 = 4.05e5
Jon25Bi (Jonah 25Bi) [DRSC03434]: stable assay Renilla, run 1 = 6983; stable assay firefly, run 1 = 3.82e5
Nup154 (Nucleoporin 154kD) [DRSC03384]: stable siRNA reporter change = reporter ratio raised past the hit cutoff; stable assay Renilla, run 1 = 8953; stable assay firefly, run 1 = 4.61e5
danr (distal antenna-related) [DRSC14651]: stable assay Renilla, run 1 = 8354; stable assay firefly, run 1 = 4.78e5
NKAIN (Na,K-ATPase Interacting) [DRSC04531]: stable assay Renilla, run 1 = 11816; stable assay firefly, run 1 = 1.60e6
NKAIN (Na,K-ATPase Interacting) [DRSC22470]: stable assay Renilla, run 1 = 3039; stable assay firefly, run 1 = 3.32e5
Alp5 (Alkaline phosphatase 5) [DRSC14269]: stable assay Renilla, run 1 = 6659; stable assay firefly, run 1 = 3.04e5
Dad [DRSC16642]: stable siRNA reporter change = reporter ratio raised past the hit cutoff; stable assay Renilla, run 1 = 17721; stable assay firefly, run 1 = 3.07e5
128up (upstream of RpIII128) [DRSC05027]: stable assay Renilla, run 1 = 8079; stable assay firefly, run 1 = 5.06e5
NaCP60E (Na channel protein 60E) [DRSC04307]: stable assay Renilla, run 1 = 11939; stable assay firefly, run 1 = 1.13e6
NaCP60E (Na channel protein 60E) [DRSC21351]: stable assay Renilla, run 1 = 9355; stable assay firefly, run 1 = 4.62e5
kune (kune-kune) [DRSC04860]: stable assay Renilla, run 1 = 6599; stable assay firefly, run 1 = 4.12e5
SdhB (Succinate dehydrogenase, subunit B (iron-sulfur)) [DRSC05018]: stable assay Renilla, run 1 = 9478; stable assay firefly, run 1 = 1.89e6
SdhB (Succinate dehydrogenase, subunit B (iron-sulfur)) [DRSC21367]: stable assay Renilla, run 1 = 8841; stable assay firefly, run 1 = 6.09e5
Rab3 [DRSC07523]: stable assay Renilla, run 1 = 7678; stable assay firefly, run 1 = 3.81e5

Look-ups from above.
Upf2 [DRSC18218], stable assay firefly, run 1: 3.70e5
SdhB (Succinate dehydrogenase, subunit B (iron-sulfur)) [DRSC21367], stable assay Renilla, run 1: 8841
